In all, about 340,000 compounds went through this assay and about 170 (0.05%) were called active. This list was built around the results that the source calls inconclusive (neither active nor inactive); the mix of calls is not that of the screen. The call rests on the fitted dose curve; in most records, active means well fitted inhibition curve with a large enough effect in the signal ratio, with a control signal flat (not every such curve was filed as active); inconclusive means small, poorly fitted or top-dose-only effect, or effect the other way, or a change in a side signal; inactive means flat fitted curve, though single readings scatter; the % refers to the signal ratio. Potencies beside an inconclusive call are fits to weak or partial responses and may not hold up.
Test: qHTS Assay to Find Inhibitors of Chronic Active B-Cell Receptor Signaling;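 on activity change, negative = inhibition: plate controls were basal doxycycline-induced cells for no effect and cells given 10 µM MG132 for full effect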
Conditions: ABC-DLBCL IkBa-CBG/CBR reporter, luminescence ratio (green luciferase fused to IkBa over red control in TMD8 lymphoma cells), 4 h; activity change, negative = inhibition: at 46.1 µM (top of the series) unless noted
In short: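 TMD8 ABC-DLBCL cells carrying doxycycline-inducible green luciferase fused to IkappaBalpha plus unfused red luciferase were exposed to compounds (up to 46 uM) for 4 hrs at 37C. Activity came from the overlap-corrected green/red luminescence ratio.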
Potency means the concentration at half of the fitted maximal effect.

SMILES | Potency | activity change, negative = inhibition
Oc1ccccc1N1CCN(Cc2ncc(-c3ccccc3)o2)CC1 | inconclusive: 20 µM [falling, partial curve, poor fit] | –
COc1cc2c(cc1[N+](=O)[O-])n(C(C)C)c(=O)n2C(C)C | – | inconclusive: -8.3%
COc1ccc(C(=O)COC(=O)C(CCSC)NC(=O)COc2ccccc2)cc1 (stereo not drawn) | – | inactive: -7.11%
Cc1ccc(C(=O)CSc2nnc(CNc3ccc(F)cc3)o2)cc1 | – | inactive: -22.6%
CCN1CCN(C(=O)c2cc3sccc3n2CC(=O)c2ccccc2)CC1 | – | inactive: 0.668%
Cc1ccc(CNC(=O)CCS(=O)(=O)c2ccc(Cl)cc2)cc1 | – | inconclusive: 12.5%
COC(=O)Nc1sccc1C(=O)Nc1sccc1C(=O)OC | – | inconclusive: -5.19%
COc1cc(NC(=O)CCCc2c[nH]c3ccccc23)cc(OC)c1 | inconclusive: 13 µM [falling, partial curve] | –
CSCC[C@@H](C(=O)NCCCCCCCCCCC(=O)N1CCN(C(=O)OC(C)(C)C)CC1)n1cc(CCO)nn1 | – | inactive: -8.33%
S=C(NCCc1ccccc1)N1CCN(Cc2ccccc2)CC1 | – | inactive: 6%
CCc1cccc(CC)c1NC(=O)C1CC(=O)N(c2ccc3c(c2)OCCO3)C1 (stereo not drawn) | – | inconclusive: -4.95%
CCn1c(N)c(C(=O)NCCCOC)sc1=S | – | inconclusive: -2.41%
Cc1noc(C)c1S(=O)(=O)N1CCC(C(=O)N2CCN(c3ccccc3Cl)CC2)CC1 | – | inconclusive: 7.66%
O=C(CC(c1ccccc1)c1ccccc1)Nc1ccc(O)cc1 | – | inconclusive: -0.825%
CCOC(=O)CNC(=O)Cn1cnc2c(nnn2-c2cccc(Cl)c2)c1=O | – | inconclusive: 6.85%
CN1C(=O)/C(=C/c2cccc(Cl)c2)Sc2ccc(C(=O)NCc3cccnc3)cc21 | inconclusive: 22.4 µM [falling, single point] | –
CN(C)c1ccc(NC(=O)c2ccc3nsnc3c2)cc1 | inconclusive: 5.17 µM [falling, partial curve] | –
O=C(N/N=C/c1sc(=O)[nH]c1-[n+]1ccc2ccccc2c1)c1ccccc1[O-] | inconclusive: 3.16 µM [falling, full curve] | –
CCc1cccc(CC)c1NC(=O)CO/N=C(\C)c1cccs1 | – | inconclusive: 7.96%
Cc1cc(=O)[nH]c(-n2nc(C)cc2C)n1 | inconclusive: 25.1 µM [falling, single point] | –
COc1ccccc1NC(=O)N1CCN(c2ncccn2)CC1 | – | inconclusive: 17.1%

In the list so far, 7 have four or more nitrogen atoms.
SMILES | Potency | activity change, negative = inhibition
CSCC[C@@H](C(=O)NCCCCCCCCCCC(=O)N1CCN(C(=O)OC(C)(C)C)CC1)n1cc(CCO)nn1 | – | inactive: -8.33%
Cc1noc(C)c1S(=O)(=O)N1CCC(C(=O)N2CCN(c3ccccc3Cl)CC2)CC1 | – | inconclusive: 7.66%
CCOC(=O)CNC(=O)Cn1cnc2c(nnn2-c2cccc(Cl)c2)c1=O | – | inconclusive: 6.85%
CN(C)c1ccc(NC(=O)c2ccc3nsnc3c2)cc1 | inconclusive: 5.17 µM [falling, partial curve] | –
O=C(N/N=C/c1sc(=O)[nH]c1-[n+]1ccc2ccccc2c1)c1ccccc1[O-] | inconclusive: 3.16 µM [falling, full curve] | –
Cc1cc(=O)[nH]c(-n2nc(C)cc2C)n1 | inconclusive: 25.1 µM [falling, single point] | –
COc1ccccc1NC(=O)N1CCN(c2ncccn2)CC1 | – | inconclusive: 17.1%

(listing goes on)

SMILES | Potency | activity change, negative = inhibition
O=C(/C=C/c1ccc2c(c1)OCO2)Nc1cccnc1 | inconclusive: 15.8 µM [falling, partial curve] | –
COc1cc(/C=N/NC(=O)c2ccc(Cn3cc([N+](=O)[O-])cn3)o2)cc(Br)c1O | inconclusive: 35.5 µM [falling, single point] | –
CC1=NNC(=O)C1CC(=O)N/N=C/c1cccs1 (stereo not drawn) | – | inconclusive: -9.61%
COc1cccc(C(=O)Nc2nnc(S(=O)(=O)N3CCOCC3)s2)c1 | – | inconclusive: 9.65%
Cc1sc(NC(=O)c2ccco2)c(C(c2ccc(F)cc2)N2CCN(C)CC2)c1C (stereo not drawn) | – | inconclusive: 16.8%
O=C(c1cccc(NS(=O)(=O)c2ccc(Br)cc2)c1)N1CCN(c2ccccc2O)CC1 | – | inconclusive: 15.9%
Cn1c(=O)n(C)c2cc(N3CCOCC3)c(NC(=O)c3ccc(F)cc3)cc21 | – | inactive: 7.55%
O=C(CCNc1ccc(Cl)c(C(F)(F)F)c1)c1ccco1 | – | inactive: 0.267%
Cn1c(CCN2CCCCC2)nc2cc(NC(=O)COc3ccc([N+](=O)[O-])cc3)ccc21 | – | inconclusive: 0.924%
Cc1ccc(CS(=O)(=O)Cc2ccc(C(=O)NCCc3ccc(Cl)cc3)o2)cc1 | – | inactive: -4.62%
Cc1ccccc1N(Cc1nnc2n1CCCCC2)C(=O)Nc1ccccc1 | – | inconclusive: 5.99%
Cc1cccc(-n2c(O)c(C=NCc3ccccn3)c3ccccc3c2=O)c1 | – | inactive: 6.99%
CN(CC(=O)N1CCc2ccccc21)S(=O)(=O)c1ccc(Br)s1 | inconclusive: 4.61 µM [rising, full curve, poor fit] | –
CCCOC(=O)c1ccc(Oc2c(-c3ccc(OC)cc3O)n[nH]c2C)cc1 | – | inconclusive: 0.606%
C=CCn1c(SCC(=O)c2[nH]c(C)c(C(C)=O)c2C)nnc1-c1ccncc1 | – | inactive: 5.06%
CCOc1cc(/C=N/Nc2ccc(C(=O)O)cc2)ccc1OC(=O)c1ccccc1C | – | inconclusive: 340%
Cc1cccc(NC(=O)CCN2CCN(C/C=C/c3ccccc3)CC2)c1 | – | inactive: 3.45%
CC(=O)N/N=C(\C)CC(=O)NC(C)(C)C | – | inconclusive: 2.67%
O=C(c1cc(-c2ccccc2O)on1)N1CCCC1 | inconclusive: 15.8 µM [falling, single point] | –
Cc1cc(NC(=O)/C=C/c2ccc(Cl)cc2)no1 | inconclusive: 25.9 µM [rising, partial curve, poor fit] | –
CCOc1cc(/C=N/NC(=O)c2cc(-c3cccnc3)nc3ccccc23)ccc1O | – | inactive: -24%

SMILES | Potency | activity change, negative = inhibition
CC(=O)NC(=S)Nc1ccc(NC(=O)c2cccnc2)cc1 | – | inconclusive: 0.12%
Cc1ccc(S(=O)(=O)N2CCCC2C(=O)Nc2nc3ccccc3s2)cc1 (stereo not drawn) | – | inconclusive: 2.6%
COc1ccccc1N1CCN(C2CCN(S(=O)(=O)c3ccc(NC(C)=O)cc3)CC2)CC1 | – | inconclusive: 3.29%
CCOC(=O)CSc1nc2ccc(N)cc2s1 | inconclusive: 8.2 µM [rising, partial curve, poor fit] | –
COc1ccc(-c2nnc(SCCOc3cccc(C)c3)n2N)cc1 | inconclusive: 0.411 µM [rising, full curve, poor fit] | –
CC(C)[C@H](NS(=O)(=O)c1ccccc1F)C(=O)OCC(=O)Nc1cccc(S(N)(=O)=O)c1 | – | inactive: -1.88%
COc1ccc(S(=O)(=O)N(C)C[C@H]2Oc3c(cccc3N(C)C)C(=O)N([C@H](C)CO)C[C@@H]2C)cc1 | – | inconclusive: 1.62%
COc1ccc(OC)c(CCNC(=O)CN2C(=O)CC(C)(C)S(=O)(=O)c3ccccc32)c1 | inconclusive: 0.00731 µM [rising, full curve, poor fit] | –
COc1ccc(-c2cc(=Nc3ccc(C)cc3)c3ccccc3o2)cc1 | – | inconclusive: 13.1%
COc1ccc(Cc2nnc(SCc3nc4ccccc4c(=O)[nH]3)o2)cc1 | – | inconclusive: 9.18%
Cc1ccccc1NC(=O)c1c(C)[nH]c(=S)c(C#N)c1-c1ccco1 | – | inactive: 0.574%
CC(C)NC(=S)NN=C1CCCCCCCCCCC1 | inconclusive: 31.6 µM [cytotoxic, single point] | –
CCOC(=O)c1cc(-c2ccccc2)n(CCC(=O)NCCc2cccc(C)c2)c1C | inconclusive: 14.1 µM [falling, partial curve, poor fit] | –
CCOc1ccc2nc(Cl)c(/C=C/C(=O)c3ccco3)cc2c1 | – | inactive: -11.6%
COc1cccc(NC(=O)Nc2ccncc2)c1 | – | inconclusive: -19.2%
CCCCOC(=O)Nc1nc2ccc(OC)cc2s1 | – | inconclusive: 9.69%
O=C(Nc1ccc(Br)cc1)/C(=C/c1cccc([N+](=O)[O-])c1)NC(=O)C1CCCCC1 | – | inactive: -0.736%
O=C(O)c1ccc(Nc2nc(-c3ccccc3)cs2)cc1 | – | inconclusive: 232%
COc1ccc(CCN(C)CCC(=O)Nc2ccc(C)cc2)cc1OC | – | inconclusive: 3.37%
CCOC(=O)c1c(NC(=O)COC(=O)c2cc(OC)c(OC)cc2[N+](=O)[O-])sc(C)c1CC | – | inconclusive: 0.48%
Brc1ccc2ncnc(Nc3ccc(N4CCOCC4)cc3)c2c1 | – | inconclusive: -6.2%

SMILES | Potency | activity change, negative = inhibition
COc1ccc(C(CC(=O)c2ccc(O)cc2)S(=O)(=O)c2ccc(C)cc2)cc1 (stereo not drawn) | inconclusive: 31.6 µM [falling, single point] | –
COc1ccc2cc3cc(C(=O)NCCN4CCN(Cc5ccccc5)CC4)oc3nc2c1 | – | inactive: 0.231%
Cc1cc(NC(=O)Cc2ccccc2)nc2c1c(=O)oc1ccccc12 | – | inconclusive: 16.2%
COC(=O)c1c(NC(=O)c2ccc(OC(C)C)cc2)sc2c1CC(C)(C)NC2(C)C | – | inconclusive: 6.2%
COc1ccc(-c2cc(C(=O)Nc3ccc(S(N)(=O)=O)cc3)c3ccccc3n2)cc1OC | – | inconclusive: 0.545%
CCN1C(=O)/C(=C\N2CCCc3ccccc32)SC1=S | – | inconclusive: 15.5%
CCOc1ccc(S(=O)(=O)N2CCCCC2)c2ccccc12 | – | inconclusive: 3.48%
COc1ccc(-c2nnc3sc(CCN4C(=O)c5ccccc5C4=O)nn23)cc1 | – | inconclusive: 1.21%
CCCc1cc(=O)[nH]c(SCC(=O)N2c3ccccc3CC2C)n1 (stereo not drawn) | – | inactive: 0.402%
CCc1nc2ccccc2n1CCC(C)C | – | inactive: -0.779%
Cc1ccc(OCCN2CCN(C(=O)CCC(=O)Nc3nnc(C(C)C)s3)CC2)cc1 | – | inactive: -7.89%
CC(Oc1cccc(Cl)c1)C(=O)N(C)CC(=O)Nc1ccc(N2CCOCC2)cc1 (stereo not drawn) | – | inactive: 1.16%
O=C(c1ccco1)N1CCN(S(=O)(=O)c2ccc(Cl)cc2)CC1 | – | inconclusive: -18.2%
COc1ccccc1-c1nc(C#N)c(N2CCN(Cc3ccccc3)CC2)o1 | – | inconclusive: -6.11%
CC(C)C[C@H](NC(=O)Nc1ccc2c(c1)OCCO2)C(=O)O | – | inconclusive: 5.09%
O=C(N/N=C/c1ccc([N+](=O)[O-])s1)c1ccccc1 | inconclusive: 11.2 µM [falling, partial curve] | –
Nc1nc(-c2ccccn2)nc(N)c1Cc1ccc(Cl)cc1Cl | – | inactive: -0.855%
COc1ccc(-c2c(-c3ccc(OC)nc3)c3ccccc3n2C)cc1 | – | inactive: -1.76%
Cc1cc(=O)oc2c1c(C)nn2-c1ccc(Br)cc1 | – | inconclusive: 24.2%
CCOC(=O)c1ccccc1NC1c2ccccc2C(=O)N1C1CCN(C(=O)OCC)CC1 (stereo not drawn) | – | inconclusive: 9.59%
